From PubChem BioAssay AID504467 (National Center for Advancing Translational Sciences (NCATS), 2011)
The campaign covered roughly 330,000 compounds. About 7,700 (2.3%) were called active. Inconclusive means that the source gave no clear call. Such entries were picked first, then a sample of the others. The call rests on the fitted dose curve; in most records, active means well fitted inhibition curve with a large enough effect; inconclusive means small, poorly fitted or top-dose-only effect, or effect the other way; inactive means flat fitted curve, though single readings scatter. A potency beside an inconclusive call is a rough fit, not a confirmed value.

Assay: qHTS screen for small molecules that inhibit ELG1-dependent DNA repair in human embryonic kidney (HEK293T) cells expressing luciferase-tagged ELG1; further: nearly all actives have a fitted effect of over 55% in size
Conditions: HEK293T ELG1-luciferase reporter, luminescence, 16 h, DNA damage induced by 5-fluorouridine; series mostly up to 46.1 µM
Summary of the method: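 Cells (2,000 per well) received 5-fluorouridine plus test compound or DMSO and were incubated 16 hr at 37 °C, 5% CO2. Luciferase activity was read by luminescence 30 min after ONE-Glo addition; signal suppression marked inhibition of damage-induced ELG1 function.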
Potency means the concentration at half of the fitted maximal effect.

SMILES | Potency
CC(C)CCNC(=O)c1ccc2c(Cl)c3c(nc2c1)CCC3 | inconclusive: 2.06 µM [activator, partial curve]
OCCNCCCCOc1ccc(OCc2ccccc2)cc1 | inconclusive: 8.2 µM [activator, partial curve]
O=C(O)C1CCC(=O)N1Cc1ccccc1Cl (stereo unspecified) | inconclusive: 16.4 µM [activator, partial curve, poor fit]
CCc1ccc(-c2ccc3nnc(SC)n3n2)cc1 | inconclusive: 16.4 µM [activator, partial curve]
O=C(Nc1cccc([N+](=O)[O-])c1)Nc1ccc2c(c1)OCCO2 | inconclusive: 2.59 µM [activator, partial curve]
O=C(c1cc2ccccc2o1)N1CCCC1 | inconclusive: 29.1 µM [activator, single point]
CC(=O)Nc1cccc(/C(C)=N/NC(=O)c2ccc3c(c2)OCO3)c1 | inconclusive: 16.4 µM [activator, partial curve]
Cc1ccc(CNS(=O)(=O)c2ccc3c(c2)NC(=O)C(C)S3)cc1 (stereo unspecified) | inactive
O=C(CCn1cccc1)N1CCc2ccccc21 | inconclusive: 16.4 µM [activator, partial curve]
CCOc1ccc(/C=C2\SC(=S)N(Nc3ccccc3)C2=O)cc1OC | inconclusive: 6.51 µM [activator, partial curve]
COc1ccc(OC2C(=O)N(Cc3ccc4c(c3)OCO4)C2c2cccs2)cc1 (stereo unspecified) | inconclusive: 29.1 µM [inhibitor, partial curve, poor fit]
O=c1c2sc(-c3ccccc3)cc2nc2n1CCCCC2 | inconclusive: 2.31 µM [activator, full curve]
Cn1sc(NC(=O)c2cccc(Cl)c2)nc1=O | inconclusive: 18.4 µM [activator, partial curve]
Cc1ccc(-n2ncc3c(=O)n(CC(=O)N4CCN(c5ccccc5)CC4)cnc32)cc1 | inconclusive: 3.66 µM [inhibitor, single point]
Clc1cccc(-c2cc3nc4c(c(N5CCOCC5)n3n2)CCCC4)c1 | inconclusive: 29.1 µM [inhibitor, single point]
CC12CCC(C(=O)Nc3cccnc3)(CC1=O)C2(C)C (stereo unspecified) | inactive
CCOC(=O)C1=C(C)N(c2ccc(OC)cc2)C(=O)/C1=C\c1cccs1 | active: 20.6 µM
O=C(CCl)Nc1cccc(CP(=O)(c2ccccc2)c2ccccc2)c1 | active: 14.6 µM
COc1ccc(Nc2cc(C)nc(NCc3ccccc3)n2)cc1 | active: 18.3 µM
CS(=O)c1ccccc1-c1nc(-c2ccc(Cl)cc2)no1 (stereo unspecified) | inconclusive: 23.1 µM [activator, single point]
C=CCn1c(=NC(=O)c2cc(Cl)sc2Cl)sc2cc(S(N)(=O)=O)ccc21 | inactive
COc1ccccc1-c1oc2ccccc2c1C#CCCO | inactive
N#Cc1ccccc1OCC(=O)NNC(=O)c1ccncc1 | inconclusive: 20.6 µM [activator, partial curve, poor fit]
Cc1c(C)c2c(OCC(=O)NCc3cccnc3)cc3c(c2oc1=O)CCC(C)(C)O3 | inactive

SMILES | Potency
Cc1ccc(S(=O)(=O)Nc2c(C)n(C)n(-c3ccccc3)c2=O)cc1C(=O)OC(C)C(=O)N(C)c1ccccc1 (stereo unspecified) | inconclusive: 29.1 µM [inhibitor, single point]
Cc1cc(C)n2cc(COc3ccc4ccccc4c3)nc2n1 | inconclusive: 2.91 µM [activator, full curve]
CC[C@]12c3[nH]c4ccc(Cl)cc4c3CCN1C(=O)[C@@H](CC(=O)NCCC1=CCCCC1)C[C@@H]2C(=O)N1CCN(C(=O)c2ccco2)CC1 | active: 16.4 µM
Cc1ccc(NC(=S)NCCN(C2CCCCC2)C2CCCC2)cc1 | inactive
CCc1nc(-c2ccccc2)c2ccccn12 | inactive
CC(C)/C=C1\CC/C(=C\c2ccc(N(C)C)cc2)C1=O | inconclusive: 9.2 µM [activator, partial curve]
CCOC(=O)C1(Cc2ccc(Cl)cc2)CCN(CCCn2cccn2)CC1 | inactive
Cc1ccc(CN(C(=O)c2ccccc2[N+](=O)[O-])C2CCS(=O)(=O)C2)o1 (stereo unspecified) | inconclusive: 18.3 µM [activator, partial curve, poor fit]
COCCN(C(=O)CSc1nc2nc(C)cc(C)n2n1)c1c(N)n(Cc2ccccc2)c(=O)[nH]c1=O | inactive
CC(C)(c1ccccc1)c1ccc(OCC(O)CN2CCCC2)cc1 (stereo unspecified) | inactive
CCc1cc(C(=O)Nc2nnc(C3CC3)s2)sc1C | inconclusive: 23.1 µM [activator, partial curve]
O=C(Nc1cccnc1)c1cc(S(=O)(=O)N2CCCCC2)c(Cl)cc1Cl | inactive
O=C(Nc1ccc(Br)cc1Cl)c1ccc(OCC2CCCO2)cc1 (stereo unspecified) | inconclusive: 3.26 µM [activator, single point]
COc1ccc(C(=O)O/N=C(\N)c2ccccn2)cc1 | inconclusive: 0.82 µM [activator, partial curve]
Cc1cc(=O)[nH]c2ccc(S(=O)(=O)Nc3ccccc3)cc12 | inconclusive: 16.4 µM [activator, partial curve]
CN(C)S(=O)(=O)c1cc(C(=O)NCc2ccccc2)c(Cl)cc1Cl | inconclusive: 18.3 µM [inhibitor, single point]
Cc1onc(-c2ccccc2)c1C(=O)OCC(=O)Nc1ccc(Cl)cc1 | inconclusive: 18.3 µM [inhibitor, single point]
c1ccc2c(N3CCCCCC3)nc(-c3ccncc3)nc2c1 | active: 7.31 µM
Cc1ccc(C)c2[nH]c(=O)c(C(c3nnnn3C(C)(C)C)N3CC=C(c4ccc(F)cc4)CC3)cc12 (stereo unspecified) | active: 7.31 µM
Cc1cc(NC(=O)Cn2nc([N+](=O)[O-])c(Br)c2C)no1 | inactive
COc1ccc(-c2noc(-c3ccccc3C(=O)NCC3CCCO3)n2)cc1 (stereo unspecified) | inconclusive: 0.073 µM [inhibitor, full curve, poor fit]
CCCCCCn1c(C)nc2c(c1=O)c1nc3ccccc3nc1n2/N=C/c1ccco1 | inconclusive: 6.51 µM [inhibitor, single point]
NC(=O)N/N=C/c1ccc([N+](=O)[O-])o1 | inactive
CC(=O)Nc1ccc(S(=O)(=O)N2CCN=C2c2ccccc2)cc1 | active: 8.2 µM

Grouped by structure, the entries above with an NH in an aromatic ring (4)
SMILES | Potency
CC[C@]12c3[nH]c4ccc(Cl)cc4c3CCN1C(=O)[C@@H](CC(=O)NCCC1=CCCCC1)C[C@@H]2C(=O)N1CCN(C(=O)c2ccco2)CC1 | active: 16.4 µM
COCCN(C(=O)CSc1nc2nc(C)cc(C)n2n1)c1c(N)n(Cc2ccccc2)c(=O)[nH]c1=O | inactive
Cc1cc(=O)[nH]c2ccc(S(=O)(=O)Nc3ccccc3)cc12 | inconclusive: 16.4 µM [activator, partial curve]
Cc1ccc(C)c2[nH]c(=O)c(C(c3nnnn3C(C)(C)C)N3CC=C(c4ccc(F)cc4)CC3)cc12 (stereo unspecified) | active: 7.31 µM

Additional entries

SMILES | Potency
CCOc1c(Cl)cc(CNCc2ccncc2)cc1OC | inconclusive: 9.2 µM [inhibitor, partial curve]
CCOc1ccc(S(=O)(=O)N2CCC(C(=O)N3CCCC3)CC2)cc1C | inactive
COC(=O)/C=C/C(=O)N1CCN(c2cccc(Cl)c2)CC1 | inconclusive: 29.1 µM [inhibitor, single point]
Cc1c(CNCc2cccs2)c(C(=O)O)c(C)n1Cc1ccccc1 | inactive
COc1ccc(NC(=O)N(C)C[C@H]2Oc3c(NS(=O)(=O)c4ccc(OC)cc4)cccc3C(=O)N([C@H](C)CO)C[C@@H]2C)cc1 | inconclusive: 20.6 µM [activator, single point]
Cc1csc(NC(=O)c2ccncc2)n1 | inconclusive: 20.6 µM [activator, single point]
O=C(Nc1ccccc1)c1nc[nH]c1C(=O)N1CCN(c2ccccc2)CC1 | inactive
CCN1CCCC1CNc1ncnc2c1[nH]c1ccc(F)cc12 (stereo unspecified) | inconclusive: 23.1 µM [inhibitor, partial curve, poor fit]
O=C1C=C(N(CCO)Cc2ccccc2)c2ccccc2C1=O | active: 8.2 µM
CC(=O)N1c2ccc(S(=O)(=O)N3CCC(C(=O)NCc4ccc(Cl)cc4)CC3)cc2CC1C (stereo unspecified) | active: 10.3 µM
COc1cc(CN2CCN(Cc3ccc4cc(F)ccc4n3)CC2CCO)cc(OC)c1 (stereo unspecified) | inconclusive: 29.1 µM [inhibitor, single point]
Cc1cccc(-n2ncc3c2CCCC3NC(=O)CCc2cccnc2)c1C (stereo unspecified) | inconclusive: 14.6 µM [inhibitor, partial curve, poor fit]
CC(=O)Nc1ccc(C(=O)OCCC(C)C)cc1 | inconclusive: 14.6 µM [activator, partial curve]
CN(C(=O)c1ccccc1Br)C1CCS(=O)(=O)C1 (stereo unspecified) | inactive
O=[N+]([O-])c1ccc(COc2ccc(-c3[nH]ncc3-c3ccccc3)c(O)c2)cc1 | inactive
Cn1cc([C@@H]2C[C@H]3CN(Cc4cccc(Cl)c4)C(=O)[C@]34CCCN24)c2ccccc21 | inactive
COc1ccc(OCC(=O)Nc2cccc(S(=O)(=O)N(C)c3ccccc3)c2)c([N+](=O)[O-])c1 | inconclusive: 0.103 µM [activator, full curve, poor fit]
N#Cc1c(N)nc(SCC(=O)C23CC4CC(CC(C4)C2)C3)c(C#N)c1-c1ccc(Cl)cc1 | inconclusive: 20.6 µM [activator, single point]
Nc1ncnc(Nc2cccc(F)c2)n1 | inconclusive: 20.6 µM [activator, partial curve]
N#C/C(=C\c1c(N2CCC(C(N)=O)CC2)nc2ccccn2c1=O)C(=O)NC1CCCCC1 | inconclusive: 11.6 µM [inhibitor, single point]
O=C(OCCN1CCOCC1)c1ccc(O)cc1 | inactive
CC(C)(C)NC(=O)c1ccc2c(c1)N(CC(=O)N1CCN(c3ccc(F)cc3)CC1)C(=O)C(C)(C)O2 | inconclusive: 23.1 µM [inhibitor, single point]
COc1cc(/C=C/C(=O)OCC(=O)Nc2cc(C)on2)ccc1OCC#N | inconclusive: 29.1 µM [activator, single point]
